Results taken from PMC7082549.

The chains behind the UniProt entries cited, without tags or fusion partners.
UniProt P06748: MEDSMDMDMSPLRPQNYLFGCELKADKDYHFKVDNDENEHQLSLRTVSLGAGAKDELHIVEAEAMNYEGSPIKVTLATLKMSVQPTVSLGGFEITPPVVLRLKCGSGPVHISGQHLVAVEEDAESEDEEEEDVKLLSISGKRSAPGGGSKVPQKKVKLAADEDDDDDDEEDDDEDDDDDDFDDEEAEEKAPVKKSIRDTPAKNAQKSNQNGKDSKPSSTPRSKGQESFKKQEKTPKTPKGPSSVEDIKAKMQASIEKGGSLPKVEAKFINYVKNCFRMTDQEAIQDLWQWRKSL
UniProt P09874: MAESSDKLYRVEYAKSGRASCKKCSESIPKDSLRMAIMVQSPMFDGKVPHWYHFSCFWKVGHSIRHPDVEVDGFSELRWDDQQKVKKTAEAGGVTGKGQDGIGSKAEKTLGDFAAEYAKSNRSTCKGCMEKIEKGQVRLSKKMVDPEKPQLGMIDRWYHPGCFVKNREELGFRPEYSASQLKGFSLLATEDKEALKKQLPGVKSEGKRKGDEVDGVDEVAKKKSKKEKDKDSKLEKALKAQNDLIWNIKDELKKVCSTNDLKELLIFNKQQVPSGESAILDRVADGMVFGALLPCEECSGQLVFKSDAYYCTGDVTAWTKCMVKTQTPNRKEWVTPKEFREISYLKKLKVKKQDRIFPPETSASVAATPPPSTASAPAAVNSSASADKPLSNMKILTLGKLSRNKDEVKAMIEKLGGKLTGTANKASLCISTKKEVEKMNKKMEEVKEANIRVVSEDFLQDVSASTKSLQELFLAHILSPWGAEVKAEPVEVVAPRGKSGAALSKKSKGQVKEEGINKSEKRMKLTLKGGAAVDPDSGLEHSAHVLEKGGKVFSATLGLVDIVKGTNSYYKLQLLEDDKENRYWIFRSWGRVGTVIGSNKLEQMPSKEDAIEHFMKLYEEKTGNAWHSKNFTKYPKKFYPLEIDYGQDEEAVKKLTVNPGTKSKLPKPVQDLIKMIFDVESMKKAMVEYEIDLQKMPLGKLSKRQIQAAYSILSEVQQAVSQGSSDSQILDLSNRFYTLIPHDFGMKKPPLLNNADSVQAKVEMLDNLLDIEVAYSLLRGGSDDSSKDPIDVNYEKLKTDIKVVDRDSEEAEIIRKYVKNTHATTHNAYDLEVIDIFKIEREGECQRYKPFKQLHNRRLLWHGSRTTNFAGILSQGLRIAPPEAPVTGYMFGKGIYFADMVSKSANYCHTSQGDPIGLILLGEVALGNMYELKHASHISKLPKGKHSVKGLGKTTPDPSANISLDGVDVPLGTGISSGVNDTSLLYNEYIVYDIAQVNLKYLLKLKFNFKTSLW
UniProt P78527: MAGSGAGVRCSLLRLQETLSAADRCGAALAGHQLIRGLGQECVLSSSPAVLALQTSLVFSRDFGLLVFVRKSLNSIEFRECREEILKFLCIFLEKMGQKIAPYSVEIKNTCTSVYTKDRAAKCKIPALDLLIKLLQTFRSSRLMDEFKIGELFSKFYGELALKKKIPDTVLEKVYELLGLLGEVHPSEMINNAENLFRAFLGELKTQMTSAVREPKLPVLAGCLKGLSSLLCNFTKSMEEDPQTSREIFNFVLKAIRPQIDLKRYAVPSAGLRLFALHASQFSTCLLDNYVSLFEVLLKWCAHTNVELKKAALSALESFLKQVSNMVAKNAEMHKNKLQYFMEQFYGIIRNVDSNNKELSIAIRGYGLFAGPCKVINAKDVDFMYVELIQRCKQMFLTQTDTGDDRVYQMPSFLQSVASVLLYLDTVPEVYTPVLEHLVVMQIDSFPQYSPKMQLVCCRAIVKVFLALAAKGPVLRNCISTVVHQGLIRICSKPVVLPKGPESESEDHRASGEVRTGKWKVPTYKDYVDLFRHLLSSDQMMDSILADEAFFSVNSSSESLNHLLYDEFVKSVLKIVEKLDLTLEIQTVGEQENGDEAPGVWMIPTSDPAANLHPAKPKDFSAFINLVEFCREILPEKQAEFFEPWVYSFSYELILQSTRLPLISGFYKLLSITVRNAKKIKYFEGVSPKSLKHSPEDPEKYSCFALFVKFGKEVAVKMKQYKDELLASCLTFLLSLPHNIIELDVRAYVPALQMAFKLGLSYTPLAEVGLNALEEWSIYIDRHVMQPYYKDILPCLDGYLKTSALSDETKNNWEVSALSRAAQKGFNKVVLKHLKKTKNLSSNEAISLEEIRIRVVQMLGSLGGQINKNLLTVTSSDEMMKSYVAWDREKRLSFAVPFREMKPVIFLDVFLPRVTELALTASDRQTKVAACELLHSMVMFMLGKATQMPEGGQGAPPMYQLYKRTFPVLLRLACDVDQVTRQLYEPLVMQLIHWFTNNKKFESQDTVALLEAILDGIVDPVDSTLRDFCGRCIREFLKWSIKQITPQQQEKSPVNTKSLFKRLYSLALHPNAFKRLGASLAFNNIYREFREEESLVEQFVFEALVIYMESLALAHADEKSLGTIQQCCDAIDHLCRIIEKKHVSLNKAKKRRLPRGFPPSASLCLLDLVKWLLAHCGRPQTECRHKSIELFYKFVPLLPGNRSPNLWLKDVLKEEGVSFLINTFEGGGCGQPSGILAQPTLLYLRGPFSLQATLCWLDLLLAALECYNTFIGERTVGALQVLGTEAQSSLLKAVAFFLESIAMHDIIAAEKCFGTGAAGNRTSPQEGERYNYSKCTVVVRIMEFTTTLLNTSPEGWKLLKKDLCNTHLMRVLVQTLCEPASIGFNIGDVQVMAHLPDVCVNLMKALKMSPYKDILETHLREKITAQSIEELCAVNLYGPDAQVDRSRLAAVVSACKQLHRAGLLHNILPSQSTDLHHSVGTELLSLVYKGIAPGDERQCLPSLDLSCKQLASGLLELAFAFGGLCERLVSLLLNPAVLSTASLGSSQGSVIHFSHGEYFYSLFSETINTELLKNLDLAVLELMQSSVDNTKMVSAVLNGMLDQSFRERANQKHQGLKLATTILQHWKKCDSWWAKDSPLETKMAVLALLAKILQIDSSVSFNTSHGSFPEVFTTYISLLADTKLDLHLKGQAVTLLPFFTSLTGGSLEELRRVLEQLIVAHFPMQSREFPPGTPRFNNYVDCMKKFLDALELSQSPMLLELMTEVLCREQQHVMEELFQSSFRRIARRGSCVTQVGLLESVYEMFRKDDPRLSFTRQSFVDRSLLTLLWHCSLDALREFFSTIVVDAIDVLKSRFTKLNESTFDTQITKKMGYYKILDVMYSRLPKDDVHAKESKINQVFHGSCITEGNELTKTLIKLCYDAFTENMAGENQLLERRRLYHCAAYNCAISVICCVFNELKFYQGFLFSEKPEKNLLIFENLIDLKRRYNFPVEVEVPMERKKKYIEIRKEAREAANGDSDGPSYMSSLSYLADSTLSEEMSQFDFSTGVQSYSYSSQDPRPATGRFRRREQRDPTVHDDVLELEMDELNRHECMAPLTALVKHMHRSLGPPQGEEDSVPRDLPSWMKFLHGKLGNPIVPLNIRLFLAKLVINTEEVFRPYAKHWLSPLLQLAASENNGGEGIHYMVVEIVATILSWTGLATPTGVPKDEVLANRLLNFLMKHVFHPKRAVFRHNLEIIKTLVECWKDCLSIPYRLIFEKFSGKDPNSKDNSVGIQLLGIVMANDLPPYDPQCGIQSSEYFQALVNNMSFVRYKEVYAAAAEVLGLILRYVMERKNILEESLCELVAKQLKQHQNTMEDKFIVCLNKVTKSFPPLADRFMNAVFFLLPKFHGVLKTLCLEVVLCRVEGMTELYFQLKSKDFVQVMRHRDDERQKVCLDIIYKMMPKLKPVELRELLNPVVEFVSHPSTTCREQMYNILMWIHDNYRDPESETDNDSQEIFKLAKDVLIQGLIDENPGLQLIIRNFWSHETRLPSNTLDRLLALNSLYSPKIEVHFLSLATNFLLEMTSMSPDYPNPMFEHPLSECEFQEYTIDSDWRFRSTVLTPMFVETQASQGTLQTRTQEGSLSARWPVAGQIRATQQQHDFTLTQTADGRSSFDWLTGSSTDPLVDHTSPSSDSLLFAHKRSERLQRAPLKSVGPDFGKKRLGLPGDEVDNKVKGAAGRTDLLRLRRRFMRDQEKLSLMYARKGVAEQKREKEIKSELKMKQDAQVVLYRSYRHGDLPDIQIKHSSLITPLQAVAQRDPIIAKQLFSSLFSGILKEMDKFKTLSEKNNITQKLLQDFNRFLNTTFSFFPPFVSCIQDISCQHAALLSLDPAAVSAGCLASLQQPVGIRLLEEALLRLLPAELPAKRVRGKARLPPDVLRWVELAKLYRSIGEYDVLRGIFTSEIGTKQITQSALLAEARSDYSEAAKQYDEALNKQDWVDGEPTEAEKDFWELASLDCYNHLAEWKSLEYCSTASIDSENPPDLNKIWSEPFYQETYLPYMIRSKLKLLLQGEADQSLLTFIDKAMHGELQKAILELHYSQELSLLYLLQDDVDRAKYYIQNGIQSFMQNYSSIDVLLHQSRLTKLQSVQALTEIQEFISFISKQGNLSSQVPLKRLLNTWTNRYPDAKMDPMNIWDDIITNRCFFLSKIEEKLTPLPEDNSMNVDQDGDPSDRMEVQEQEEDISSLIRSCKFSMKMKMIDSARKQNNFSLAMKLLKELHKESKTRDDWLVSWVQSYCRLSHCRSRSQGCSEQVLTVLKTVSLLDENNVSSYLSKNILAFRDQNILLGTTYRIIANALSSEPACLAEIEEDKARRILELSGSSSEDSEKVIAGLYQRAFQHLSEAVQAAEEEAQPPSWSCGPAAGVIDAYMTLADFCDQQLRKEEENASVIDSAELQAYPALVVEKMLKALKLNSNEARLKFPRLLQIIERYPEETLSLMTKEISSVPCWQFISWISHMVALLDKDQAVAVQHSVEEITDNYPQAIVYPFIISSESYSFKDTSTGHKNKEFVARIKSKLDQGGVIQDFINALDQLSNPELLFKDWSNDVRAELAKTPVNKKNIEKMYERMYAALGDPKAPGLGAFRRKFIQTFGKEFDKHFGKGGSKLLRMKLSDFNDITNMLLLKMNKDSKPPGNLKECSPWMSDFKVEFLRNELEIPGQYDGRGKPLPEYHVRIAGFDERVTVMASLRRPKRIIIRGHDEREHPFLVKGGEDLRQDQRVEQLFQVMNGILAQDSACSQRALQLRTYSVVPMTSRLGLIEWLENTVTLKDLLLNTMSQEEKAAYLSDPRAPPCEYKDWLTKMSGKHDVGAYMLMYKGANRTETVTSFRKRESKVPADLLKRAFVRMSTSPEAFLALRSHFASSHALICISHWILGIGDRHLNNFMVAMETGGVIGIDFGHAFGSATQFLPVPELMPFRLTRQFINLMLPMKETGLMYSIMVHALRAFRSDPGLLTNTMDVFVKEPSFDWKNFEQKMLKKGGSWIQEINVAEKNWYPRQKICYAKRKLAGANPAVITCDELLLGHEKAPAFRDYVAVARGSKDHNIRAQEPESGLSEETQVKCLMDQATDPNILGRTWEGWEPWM

molecular target: FLAG/HA-double-tagged METTL8 (human) (UniProt Q9H825); test: affinity purification with mass spectrometry; large-scale (>10 L) purification of the FLAG/HA-METTL8 complex from 100 mg HeLaS3 nuclear extract by a scheme of chromatographic steps; FASP mass spectrometry (n = 3); controls: NHS column with IgG, METTL8 KO cells; complex resistant to RNase A

binding, binds:
NPM1 (from UniProt P06748 1-294), PARP1 (from UniProt P09874 1-1014) (enzyme), PRKDC (from UniProt P78527 1-4128) (enzyme)

Results are given in words; binding and its absence hold for the method and conditions named. In cells and extracts the contact can be indirect. These calls come from enrichment with a bait or labelling near it, and not all partners need be listed. Sequences can lack the tags named with a protein.
